# The supplement of paper PMC8728848
# The other results are listed elsewhere or left out.
# B1: Awp3 (Candida glabrata), B4UN32 (protein)
# chain: MISFVTLLAILGLLSISWADQTVRSVAGDQRVTDPVIVGDNSILDYYGGSNYDFSNNFEIGRGTLYIGKESYFSSFQSAPTDVPNSFHLLIKNTNNLQNNGQFIIENIKRHANQCSNSSIQVFPINFQNDGEFEIISGGVEGRCCLPTSVIAPQNFLNNGKFYYKVLTDTGSIYSGSCMQNVDIGASTTTTVNNNLWEFTGSINAQINGAVSGAAQINLDGSNMFVNANTFSGQVVNLINGGSFLQTSDPLSNIVVINGLGTSDTGVTSIAVKGKGKSFTYNPSSGIVKLTTVEGKTYAYQIGCGYNTKKFITNNDSGASYESADNFFVLTYSEPYSPQTCQLENSSIFSSNFISTSTSSSSSSSSASSLPSSMSSSLPSSLSSSLSSSLSSSMSSSMSSLFIIPPPYTTTRSSGSSIIDTEIVSFYSTTDSPGHTITGTTTTTLYGPHTHSSVSTPSSSSESSTTSNSSIESSSLPHTSVSSTPESSITPSSNTISSSPTSDFSSVQSSSIMESSSVVASSSVINSSSIVDSSSSSASSLPSSMSSSLSSSMSSSLPSSMSSSLSSSLSSSLSSSMSSSMSSLFIIPPPYTTTRSSGSSIIDTEIVSFYSTTDSPGHTITGTTTTTLYGPHTHSSVSTPSSSSESSTTSNSSIESSSLPHTSVSSTPESSITPSSNTISSSPTSDFSSVQSSSIMESSSVVASSSVINSSSIVDSSSSSASSLPSSMPSSLPSSMSSSLSSSMSSSLSSSLSSSLSSSMSSSMSSLFIIPPPYTTTRSSGSSIIDTEIVSFYSTTDSPGHTITGTTTTTLYGPHTHSSVSTPSSSSESSTTSNSSIESSSLPHTSVSSTPESSITPSSNTISSSPTSDFSSVQSSSIMESSSVVASSSATQSSSVINSSSIVDSSSSSASSLPSSMPSSLPSSLSSSLSSSLSSSMSSSMSSLFIIPPPYTTTRSSGSSIIDTEIVSFYSTTDSPGHTITGTTTTTLYESSIYSSSSSTIQESELSNTSRTTMTSNSSVSISSTSSRSSFSNTKSSTIVISQSASLPDSKTDIILSTSSNIGYSSRSLLSDLGTSISDSDIHHSVLHSTESYSSNESGTNPFTSIASLSNFIPESSSHTSTALGSENSVISSDILTTMSHPVATNSGDKPTTPKRSEQVSTTMTSSGPTPDTSSFDTDGMSAYSRPEFTTNSLEVNKSSTSQLGNNKQTFSNLQLESTRPHSENEVDNNTRLLQSIQQSSTYGTNNVNPLSPTGSISIPLTEDGQGDNNNWNSPATNDLCTQISFNLTATTITVTDRITITDSIHDISSEVITSYIYQTIVDQKTVTQTVDGKSLANKMSSIPKPSSRSLIQPQPPVAIELQEGAASTSRVSLVSLFISIILVLL
# Tests used:
# Assay in all cases: glycan array binding signal (z-score within array); higher = stronger binding
# Conditions in all cases: glycan notation: IUPAC condensed, linker removed
# [1] = target: Neu5Ac(a2-6)Gal(b1-4)GlcNAc(b1-3)Gal(b1-4)GlcNAc(b1-3)Gal(b1-4)GlcNAc(b1-2)Man(a1-3)[Neu5Ac(a2-6)Gal(b1-4)GlcNAc(b1-3)Gal(b1-4)GlcNAc(b1-3)Gal(b1-4)GlcNAc(b1-2)Man(a1-6)]GalNAc
# In short: (§1)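 Columns mapping to the same glycan were averaged after glycan names were converted to IUPAC-condensed notation. The data come from 3228 arrays in the Consortium for Functional Glycomics database, limited to those with an available protein sequence. Binding is reported as a within-array Z-score averaged across arrays of one protein sequence and across linkers.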
# [2] = target: Neu5Ac(a2-6)Gal(b1-4)GlcNAc(b1-3)Gal(b1-4)GlcNAc(b1-3)GalNAc
# In short: as §1
# [3] = target: Neu5Ac(a2-6)Gal(b1-4)GlcNAc(b1-3)Gal(b1-4)GlcNAc(b1-3)[Neu5Ac(a2-6)Gal(b1-4)GlcNAc(b1-3)Gal(b1-4)GlcNAc(b1-6)]GalNAc
# In short: as §1
# [4] = target: Neu5Ac(a2-6)Gal(b1-4)GlcNAc(b1-3)Gal(b1-4)GlcNAc(b1-6)[Gal(b1-3)]GalNAc
# In short: as §1
# [5] = target: Neu5Ac(a2-6)Gal(b1-4)GlcNAc(b1-3)Gal(b1-4)[Fuc(a1-3)]GlcNAc(b1-3)Gal(b1-4)[Fuc(a1-3)]GlcNAc
# In short: as §1
# [6] = target: Neu5Ac(a2-6)Gal(b1-4)GlcNAc(b1-3)GalNAc
# In short: as §1
# [7] = target: Neu5Ac(a2-6)Gal(b1-4)GlcNAc(b1-3)[Neu5Ac(a2-6)Gal(b1-4)GlcNAc(b1-6)]GalNAc
# In short: as §1
# [8] = target: Neu5Ac(a2-6)Gal(b1-4)GlcNAc(b1-6)GalNAc
# In short: as §1
# [9] = target: Neu5Ac(a2-6)Gal(b1-4)GlcNAc(b1-6)[Gal(b1-3)GlcNAc(b1-3)]Gal(b1-4)Glc
# In short: as §1
# [10] = target: Neu5Ac(a2-6)Gal(b1-4)GlcNAc(b1-6)[Gal(b1-3)]GalNAc
# In short: as §1
# [11] = target: Neu5Ac(a2-6)Gal(b1-4)GlcNAc6S
# In short: as §1
# [12] = target: Neu5Ac(a2-6)GalNAc
# In short: as §1
# [13] = target: Neu5Ac(a2-6)GalNAc(b1-4)GlcNAc
# In short: as §1
# [14] = target: Neu5Ac(a2-6)GalNAc(b1-4)GlcNAc6S
# In short: as §1
# [15] = target: Neu5Ac(a2-6)GlcNAc(b1-4)GlcNAc
# In short: as §1
# [16] = target: Neu5Ac(a2-6)GlcNAc(b1-4)GlcNAc(b1-4)GlcNAc
# In short: as §1
# [17] = target: Neu5Ac(a2-8)Neu5Ac
# In short: as §1
# [18] = target: Neu5Ac(a2-8)Neu5Ac(a2-3)Gal(b1-3)GalNAc(b1-4)[Neu5Ac(a2-3)]Gal(b1-4)Glc
# In short: as §1
# [19] = target: Neu5Ac(a2-8)Neu5Ac(a2-3)Gal(b1-3)GalNAc(b1-4)[Neu5Ac(a2-8)Neu5Ac(a2-3)]Gal(b1-4)Glc
# In short: as §1
# [20] = target: Neu5Ac(a2-8)Neu5Ac(a2-3)Gal(b1-4)Glc
# In short: as §1
# [21] = target: Neu5Ac(a2-8)Neu5Ac(a2-3)Gal(b1-4)GlcNAc
# In short: as §1
# [22] = target: Neu5Ac(a2-8)Neu5Ac(a2-3)[Gal(b1-3)GalNAc(b1-4)]Gal(b1-4)Glc
# In short: as §1
# [23] = target: Neu5Ac(a2-8)Neu5Ac(a2-3)[GalNAc(b1-4)]Gal(b1-4)Glc
# In short: as §1
# [24] = target: Neu5Ac(a2-8)Neu5Ac(a2-8)Neu5Ac
# In short: as §1
# [25] = target: Neu5Ac(a2-8)Neu5Ac(a2-8)Neu5Ac(a2-3)Gal(b1-4)Glc
# In short: as §1
# [26] = target: Neu5Ac(a2-8)Neu5Ac(a2-8)Neu5Ac(a2-3)[Gal(b1-3)GalNAc(b1-4)]Gal(b1-4)Glc
# In short: as §1
# [27] = target: Neu5Ac(a2-8)Neu5Ac(a2-8)Neu5Ac(a2-3)[GalNAc(b1-4)]Gal(b1-4)Glc
# In short: as §1
# [28] = target: Neu5Ac(a2-8)Neu5Ac(a2-8)Neu5Ac(a2-8)Neu5Ac(a2-3)[GalNAc(b1-4)]Gal(b1-4)Glc
# In short: as §1
# [29] = target: Neu5Ac(a2-8)Neu5Gc(a2-3)Gal(b1-4)GlcNAc
# In short: as §1
# [30] = target: Neu5Ac(b2-6)Gal(b1-4)GlcNAc
# In short: as §1
# [31] = target: Neu5Ac(b2-6)GalNAc
# In short: as §1
# [32] = target: Neu5Ac9Ac(a2-3)Gal(b1-3)GlcNAc
# In short: as §1
# [33] = target: Neu5Ac9Ac(a2-3)Gal(b1-4)GlcNAc
# In short: as §1
# [34] = target: Neu5Ac9Ac(a2-6)Gal(b1-4)GlcNAc
# In short: as §1
# [35] = target: Neu5Gc(a2-3)Gal(b1-3)GlcNAc
# In short: as §1
# [36] = target: Neu5Gc(a2-3)Gal(b1-3)[Fuc(a1-4)]GlcNAc
# In short: as §1
# [37] = target: Neu5Gc(a2-3)Gal(b1-4)Glc
# In short: as §1
# [38] = target: Neu5Gc(a2-3)Gal(b1-4)GlcNAc
# In short: as §1
# [39] = target: Neu5Gc(a2-3)Gal(b1-4)GlcNAc(b1-3)Gal(b1-4)GlcNAc(b1-2)Man(a1-3)[Neu5Gc(a2-3)Gal(b1-4)GlcNAc(b1-3)Gal(b1-4)GlcNAc(b1-2)Man(a1-6)]Man(b1-4)GlcNAc(b1-4)GlcNAc
# In short: as §1
# [40] = target: Neu5Gc(a2-3)Gal(b1-4)[Fuc(a1-3)]GlcNAc
# In short: as §1
# [41] = target: Neu5Gc(a2-6)Gal(b1-4)GlcNAc
# In short: as §1
# [42] = target: Neu5Gc(a2-6)GalNAc
# In short: as §1
# [43] = target: Neu5Gc(a2-8)Neu5Ac(a2-3)Gal(b1-4)GlcNAc
# In short: as §1
# [44] = target: Neu5Gc(a2-8)Neu5Gc(a2-3)Gal(b1-4)GlcNAc
# In short: as §1
# [45] = target: Neu5Gc(a2-8)Neu5Gc(a2-3)Gal(b1-4)GlcNAc(b1-3)Gal(b1-4)GlcNAc
# In short: as §1
binder,measurement,setting,value
B1,glycan array binding signal (z-score),[1],1.39
same,glycan array binding signal (z-score),[2],-1.67
same,glycan array binding signal (z-score),[3],0.384
same,glycan array binding signal (z-score),[4],1.06
same,glycan array binding signal (z-score),[5],1.75
same,glycan array binding signal (z-score),[6],0.189
same,glycan array binding signal (z-score),[7],0.684
same,glycan array binding signal (z-score),[8],0.184
same,glycan array binding signal (z-score),[9],1.02
same,glycan array binding signal (z-score),[10],2.16
same,glycan array binding signal (z-score),[11],1.29
same,glycan array binding signal (z-score),[12],-0.031
same,glycan array binding signal (z-score),[13],-0.39
same,glycan array binding signal (z-score),[14],0.454
same,glycan array binding signal (z-score),[15],2.86
same,glycan array binding signal (z-score),[16],2.42
same,glycan array binding signal (z-score),[17],-0.366
same,glycan array binding signal (z-score),[18],-0.587
same,glycan array binding signal (z-score),[19],1.14
same,glycan array binding signal (z-score),[20],-0.509
same,glycan array binding signal (z-score),[21],-1.76
same,glycan array binding signal (z-score),[22],-1.1
same,glycan array binding signal (z-score),[23],1
same,glycan array binding signal (z-score),[24],0.259
same,glycan array binding signal (z-score),[25],-0.433
same,glycan array binding signal (z-score),[26],-1.34
same,glycan array binding signal (z-score),[27],-0.558
same,glycan array binding signal (z-score),[28],1.87
same,glycan array binding signal (z-score),[29],-0.294
same,glycan array binding signal (z-score),[30],0.404
same,glycan array binding signal (z-score),[31],0.885
same,glycan array binding signal (z-score),[32],0.617
same,glycan array binding signal (z-score),[33],-0.226
same,glycan array binding signal (z-score),[34],0.167
same,glycan array binding signal (z-score),[35],-0.401
same,glycan array binding signal (z-score),[36],-0.441
same,glycan array binding signal (z-score),[37],-0.678
same,glycan array binding signal (z-score),[38],0.694
same,glycan array binding signal (z-score),[39],0.149
same,glycan array binding signal (z-score),[40],0.932
same,glycan array binding signal (z-score),[41],1.13
same,glycan array binding signal (z-score),[42],-0.186
same,glycan array binding signal (z-score),[43],-0.196
same,glycan array binding signal (z-score),[44],0.721
same,glycan array binding signal (z-score),[45],-0.951

# A portion from the list above:
binder,measurement,setting,value
B1,glycan array binding signal (z-score),[18],-0.587
same,glycan array binding signal (z-score),[19],1.14
